Experimental findings from patent US20040142894, “Modulation of cellular proliferation” (published 2004) are described below.

Where cells or extracts were used, other partners may take part. For some assays here: Negatives hold for the conditions tested. Tags and fusion partners may be left off the protein sequences shown.

The target of series [1] is T1, HiNF-P (endogenous, HeLa nuclear extract) (Homo sapiens) (UniProt Q9BQA5).
T1 sequence (looked up, limits assumed): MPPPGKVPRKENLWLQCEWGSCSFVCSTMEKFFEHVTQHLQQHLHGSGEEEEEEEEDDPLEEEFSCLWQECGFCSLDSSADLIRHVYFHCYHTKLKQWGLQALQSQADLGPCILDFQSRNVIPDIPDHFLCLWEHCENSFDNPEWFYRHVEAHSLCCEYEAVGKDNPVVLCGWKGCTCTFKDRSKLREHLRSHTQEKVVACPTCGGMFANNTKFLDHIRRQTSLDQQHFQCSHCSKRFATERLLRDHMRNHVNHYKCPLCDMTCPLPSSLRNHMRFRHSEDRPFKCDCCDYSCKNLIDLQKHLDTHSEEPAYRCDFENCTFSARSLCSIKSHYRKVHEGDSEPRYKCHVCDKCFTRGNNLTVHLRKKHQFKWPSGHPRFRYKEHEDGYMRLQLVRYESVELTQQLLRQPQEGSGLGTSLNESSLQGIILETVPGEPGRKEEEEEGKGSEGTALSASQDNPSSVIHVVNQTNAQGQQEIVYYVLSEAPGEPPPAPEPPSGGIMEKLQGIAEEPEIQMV
Put plainly: EMSA. Conditions: Zn2+ and Mg2+ 0.2 mM, room temperature; complex blocked by HiNF-P antisera; protein in an extract; label: 32P.

The target of series [2] is T1, HiNF-P (endogenous, HeLa nuclear extract) (Homo sapiens). The series can be described thus: competition with a labelled probe. Conditions: excess cold mutant does not compete; protein in an extract; variant of Site II minimal HiNF-P binding oligo.

For “GATCCTTCGGTTTTCAATCTGGTCCGAT (double strand) [Site II minimal HiNF-P binding oligo]”, the binding result in series [1] is “binds”.
Regarding “GATCCTTCGGTTTTCAATCTTCTACGAT (double strand) [Site II mutant H4-Pmut]”, in series [2], the binding result is reported as “no binding”.
